# Results as given in the supplement of paper PMC8728848.
# The other results are listed elsewhere or left out.
# B1: AFL6 (Aspergillus fumigatus), Q4WKJ1 (protein)
# chain: MSFHLTAEDIRIEDGHRLVARLRNADGDLQDASIDLNTCLGNDNGHFQWDGVDFSHSAQDVHFAIEGGGQVPVLRAQLANQDGEFQDADVNLSERIENINGEFVFH
# Experiments:
# Test in all cases: glycan array binding signal (z-score within array); higher = stronger binding
# Details in all cases: glycan notation: IUPAC condensed, linker removed
# [1] = molecular target: Gal(b1-4)GlcNAc(b1-2)[Gal(b1-4)GlcNAc(b1-6)]Man(a1-6)[Gal(b1-4)GlcNAc(b1-2)Man(a1-3)]Man(b1-4)GlcNAc(b1-4)[Fuc(a1-6)]GlcNAc
# Method in brief: (§1)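 Glycan array data came from 3228 arrays in the Consortium for Functional Glycomics database, and only arrays with an available protein sequence were kept. Glycan names were put into IUPAC-condensed notation, and columns mapping to the same glycan were averaged. The binding signal is a within-array Z-score, averaged across arrays of one protein sequence run at different concentrations or buffers and across linkers. A negative Z-score can be read as non-binding.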
# [2] = molecular target: Gal(b1-4)GlcNAc(b1-2)[Gal(b1-4)GlcNAc(b1-6)]Man(a1-6)[GlcNAc(b1-4)][Gal(b1-4)GlcNAc(b1-2)Man(a1-3)]Man(b1-4)GlcNAc(b1-4)GlcNAc
# Method in brief: as §1
# [3] = molecular target: Gal(b1-4)GlcNAc(b1-2)[Gal(b1-4)GlcNAc(b1-6)]Man(a1-6)[GlcNAc(b1-4)][Gal(b1-4)GlcNAc(b1-2)[Gal(b1-4)GlcNAc(b1-4)]Man(a1-3)]Man(b1-4)GlcNAc(b1-4)[Fuc(a1-6)]GlcNAc
# Method in brief: as §1
# [4] = molecular target: Gal(b1-4)GlcNAc(b1-3)Gal(b1-3)GalNAc
# Method in brief: as §1
# [5] = molecular target: Gal(b1-4)GlcNAc(b1-3)Gal(b1-3)GlcNAc
# Method in brief: as §1
# [6] = molecular target: Gal(b1-4)GlcNAc(b1-3)Gal(b1-4)Glc
# Method in brief: as §1
# [7] = molecular target: Gal(b1-4)GlcNAc(b1-3)Gal(b1-4)GlcNAc
# Method in brief: as §1
# [8] = molecular target: Gal(b1-4)GlcNAc(b1-3)Gal(b1-4)GlcNAc(b1-2)Man(a1-3)[Gal(b1-4)GlcNAc(b1-3)Gal(b1-4)GlcNAc(b1-2)Man(a1-6)]Man(b1-4)GlcNAc(b1-4)GlcNAc
# Method in brief: as §1
# [9] = molecular target: Gal(b1-4)GlcNAc(b1-3)Gal(b1-4)GlcNAc(b1-2)Man(a1-3)[Gal(b1-4)GlcNAc(b1-3)Gal(b1-4)GlcNAc(b1-2)Man(a1-6)]Man(b1-4)GlcNAc(b1-4)[Fuc(a1-6)]GlcNAc
# Method in brief: as §1
# [10] = molecular target: Gal(b1-4)GlcNAc(b1-3)Gal(b1-4)GlcNAc(b1-2)[Gal(b1-4)GlcNAc(b1-3)Gal(b1-4)GlcNAc(b1-6)]Man(a1-6)[Gal(b1-4)GlcNAc(b1-3)Gal(b1-4)GlcNAc(b1-2)Man(a1-3)]Man(b1-4)GlcNAc(b1-4)GlcNAc
# Method in brief: as §1
# [11] = molecular target: Gal(b1-4)GlcNAc(b1-3)Gal(b1-4)GlcNAc(b1-2)[Gal(b1-4)GlcNAc(b1-3)Gal(b1-4)GlcNAc(b1-6)]Man(a1-6)[Gal(b1-4)GlcNAc(b1-3)Gal(b1-4)GlcNAc(b1-2)Man(a1-3)]Man(b1-4)GlcNAc(b1-4)[Fuc(a1-6)]GlcNAc
# Method in brief: as §1
# [12] = molecular target: Gal(b1-4)GlcNAc(b1-3)Gal(b1-4)GlcNAc(b1-3)Gal(b1-4)GlcNAc
# Method in brief: as §1
# [13] = molecular target: Gal(b1-4)GlcNAc(b1-3)Gal(b1-4)GlcNAc(b1-3)Gal(b1-4)GlcNAc(b1-2)Man(a1-3)[Gal(b1-4)GlcNAc(b1-3)Gal(b1-4)GlcNAc(b1-3)Gal(b1-4)GlcNAc(b1-2)Man(a1-6)]Man(b1-4)GlcNAc(b1-4)GlcNAc
# Method in brief: as §1
# [14] = molecular target: Gal(b1-4)GlcNAc(b1-3)Gal(b1-4)GlcNAc(b1-3)Gal(b1-4)GlcNAc(b1-2)Man(a1-3)[Gal(b1-4)GlcNAc(b1-3)Gal(b1-4)GlcNAc(b1-3)Gal(b1-4)GlcNAc(b1-2)Man(a1-6)]Man(b1-4)GlcNAc(b1-4)[Fuc(a1-6)]GlcNAc
# Method in brief: as §1
# [15] = molecular target: Gal(b1-4)GlcNAc(b1-3)Gal(b1-4)GlcNAc(b1-3)Gal(b1-4)GlcNAc(b1-2)[Gal(b1-4)GlcNAc(b1-3)Gal(b1-4)GlcNAc(b1-3)Gal(b1-4)GlcNAc(b1-6)]Man(a1-6)[Gal(b1-4)GlcNAc(b1-3)Gal(b1-4)GlcNAc(b1-3)Gal(b1-4)GlcNAc(b1-2)Man(a1-3)]Man(b1-4)GlcNAc(b1-4)[Fuc(a1-6)]GlcNAc
# Method in brief: as §1
# [16] = molecular target: Gal(b1-4)GlcNAc(b1-3)Gal(b1-4)GlcNAc(b1-3)Gal(b1-4)GlcNAc(b1-3)Gal(b1-4)GlcNAc(b1-2)Man(a1-3)[Gal(b1-4)GlcNAc(b1-3)Gal(b1-4)GlcNAc(b1-3)Gal(b1-4)GlcNAc(b1-3)Gal(b1-4)GlcNAc(b1-2)Man(a1-6)]Man(b1-4)GlcNAc(b1-4)GlcNAc
# Method in brief: as §1
# [17] = molecular target: Gal(b1-4)GlcNAc(b1-3)Gal(b1-4)GlcNAc(b1-3)Gal(b1-4)GlcNAc(b1-3)Gal(b1-4)GlcNAc(b1-2)Man(a1-3)[Gal(b1-4)GlcNAc(b1-3)Gal(b1-4)GlcNAc(b1-3)Gal(b1-4)GlcNAc(b1-3)Gal(b1-4)GlcNAc(b1-2)Man(a1-6)]Man(b1-4)GlcNAc(b1-4)[Fuc(a1-6)]GlcNAc
# Method in brief: as §1
# [18] = molecular target: Gal(b1-4)GlcNAc(b1-3)Gal(b1-4)GlcNAc(b1-3)Gal(b1-4)GlcNAc(b1-3)Gal(b1-4)GlcNAc(b1-2)[Gal(b1-4)GlcNAc(b1-3)Gal(b1-4)GlcNAc(b1-3)Gal(b1-4)GlcNAc(b1-3)Gal(b1-4)GlcNAc(b1-6)]Man(a1-6)[Gal(b1-4)GlcNAc(b1-3)Gal(b1-4)GlcNAc(b1-3)Gal(b1-4)GlcNAc(b1-3)Gal(b1-4)GlcNAc(b1-2)Man(a1-3)]Man(b1-4)GlcNAc(b1-4)[Fuc(a1-6)]GlcNAc
# Method in brief: as §1
# [19] = molecular target: Gal(b1-4)GlcNAc(b1-3)Gal(b1-4)GlcNAc(b1-3)Gal(b1-4)GlcNAc(b1-3)Gal(b1-4)GlcNAc(b1-3)Gal(b1-4)GlcNAc(b1-2)Man(a1-3)[Gal(b1-4)GlcNAc(b1-3)Gal(b1-4)GlcNAc(b1-3)Gal(b1-4)GlcNAc(b1-3)Gal(b1-4)GlcNAc(b1-3)Gal(b1-4)GlcNAc(b1-2)Man(a1-6)]Man(b1-4)GlcNAc(b1-4)GlcNAc
# Method in brief: as §1
# [20] = molecular target: Gal(b1-4)GlcNAc(b1-3)Gal(b1-4)GlcNAc(b1-3)Gal(b1-4)GlcNAc(b1-3)Gal(b1-4)GlcNAc(b1-3)Gal(b1-4)GlcNAc(b1-2)Man(a1-3)[Gal(b1-4)GlcNAc(b1-3)Gal(b1-4)GlcNAc(b1-3)Gal(b1-4)GlcNAc(b1-3)Gal(b1-4)GlcNAc(b1-3)Gal(b1-4)GlcNAc(b1-2)Man(a1-6)]Man(b1-4)GlcNAc(b1-4)[Fuc(a1-6)]GlcNAc
# Method in brief: as §1
# [21] = molecular target: Gal(b1-4)GlcNAc(b1-3)Gal(b1-4)GlcNAc(b1-3)Gal(b1-4)GlcNAc(b1-3)Gal(b1-4)GlcNAc(b1-3)Gal(b1-4)GlcNAc(b1-2)[Gal(b1-4)GlcNAc(b1-3)Gal(b1-4)GlcNAc(b1-3)Gal(b1-4)GlcNAc(b1-3)Gal(b1-4)GlcNAc(b1-3)Gal(b1-4)GlcNAc(b1-6)]Man(a1-6)[Gal(b1-4)GlcNAc(b1-3)Gal(b1-4)GlcNAc(b1-3)Gal(b1-4)GlcNAc(b1-3)Gal(b1-4)GlcNAc(b1-3)Gal(b1-4)GlcNAc(b1-2)Man(a1-3)]Man(b1-4)GlcNAc(b1-4)[Fuc(a1-6)]GlcNAc
# Method in brief: as §1
# [22] = molecular target: Gal(b1-4)GlcNAc(b1-3)Gal(b1-4)GlcNAc(b1-3)Gal(b1-4)GlcNAc(b1-3)Gal(b1-4)GlcNAc(b1-3)Gal(b1-4)GlcNAc(b1-3)Gal(b1-4)GlcNAc(b1-2)Man(a1-3)[Gal(b1-4)GlcNAc(b1-3)Gal(b1-4)GlcNAc(b1-3)Gal(b1-4)GlcNAc(b1-3)Gal(b1-4)GlcNAc(b1-3)Gal(b1-4)GlcNAc(b1-3)Gal(b1-4)GlcNAc(b1-2)Man(a1-6)]Man(b1-4)GlcNAc(b1-4)GlcNAc
# Method in brief: as §1
# [23] = molecular target: Gal(b1-4)GlcNAc(b1-3)Gal(b1-4)GlcNAc(b1-3)GalNAc
# Method in brief: as §1
binder,measurement,setting,value
B1,glycan array binding signal (z-score),[1],0.724
same,glycan array binding signal (z-score),[2],-0.584
same,glycan array binding signal (z-score),[3],-0.245
same,glycan array binding signal (z-score),[4],-0.366
same,glycan array binding signal (z-score),[5],0.015
same,glycan array binding signal (z-score),[6],-0.352
same,glycan array binding signal (z-score),[7],0.218
same,glycan array binding signal (z-score),[8],2.27
same,glycan array binding signal (z-score),[9],0.371
same,glycan array binding signal (z-score),[10],2.23
same,glycan array binding signal (z-score),[11],1.45
same,glycan array binding signal (z-score),[12],-0.453
same,glycan array binding signal (z-score),[13],2.41
same,glycan array binding signal (z-score),[14],1.5
same,glycan array binding signal (z-score),[15],1.58
same,glycan array binding signal (z-score),[16],1.12
same,glycan array binding signal (z-score),[17],2.99
same,glycan array binding signal (z-score),[18],1.23
same,glycan array binding signal (z-score),[19],1.16
same,glycan array binding signal (z-score),[20],0.612
same,glycan array binding signal (z-score),[21],1.35
same,glycan array binding signal (z-score),[22],0.978
same,glycan array binding signal (z-score),[23],0.845

# Reformatted with tabs: entries from further up
binder	measurement	setting	value
B1	glycan array binding signal (z-score)	[1]	0.724
same	glycan array binding signal (z-score)	[2]	-0.584
